Results taken from patent publication US4269820A, “Safeguarded toxic chemical compositions containing effective emesis-inducing S-triazolo-[1,5-α]pyrimidine derivatives” (priority 1977, dated 1981).
Like-named read-outs stand apart in the source and are kept apart here.

Columns and labels:
in vivo = conditions: rat, po
gastric emptying [1] = assay: animal or person; conditions: Mus musculus, 1 h, read-out: Percentage inhibition of gastric emptying
gastric emptying [2] = assay: animal or person; conditions: Rattus norvegicus, 1 h, read-out: Percentage inhibition of gastric emptying
gastric emptying [3] = assay: animal or person; conditions: Macaca fascicularis, po, 1 h, read-out: Percentage inhibition of gastric emptying

CCCn1c(=O)c(C)cn2nc(N)nc12 [Emetic of Formula III, 2-amino-6-methyl-5-oxo-4-n-propyl-4,5-dihydro-s-triazolo [1,5-a] pyrimidine]
LD50 (in vivo): 160 mg/kg
inhibition at 2.5 mg/kg (gastric emptying [1]; po): 91%
inhibition at 1 mg/kg (gastric emptying [1]; sc): 86%
inhibition at 0.1 mg/kg (gastric emptying [2]; po): 37%
inhibition at 1 mg/kg (gastric emptying [2]; po): 68%
inhibition at 0.1 mg/kg (gastric emptying [2]; sc): 48%
inhibition at 1 mg/kg (gastric emptying [2]; sc): 75%
inhibition at 0.2 mg/kg (gastric emptying [3]): 61%
